# The list shows a part of the results. Further columns of the screen follow, without active or inactive calls. Most of these compounds were active or inconclusive in the main read-out, so they are no random draw. Potencies come from curve fits of mixed quality, noted in brackets.
# Assay: qHTS Assay to Find Inhibitors of Chronic Active B-Cell Receptor Signaling
# Details: ABC-DLBCL IkBa-CBG/CBR reporter, luminescence ratio (green luciferase fused to IkBa over red control in TMD8 lymphoma cells), 4 h
# In short: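 Doxycycline induced both beetle luciferases in TMD8 lymphoma cells; IKK-driven degradation limits the IkappaBalpha-fused green signal, while red luminescence normalises for cell number and nonspecific effects. Compounds tested up to 46 uM, 4 hrs.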
# [1] = measured here: CBR red luminescence, cell number
# [2] = measured here: IkBa-CBG green luminescence
Compound,AC50 [1],AC50 [2]
Cc1[nH][nH]c(=O)c1C(c1ccc(-c2ccc(Cl)cc2)o1)c1c(C)[nH][nH]c1=O,"10.3 µM [falling, partial curve, poor fit]",
CN(c1ccccc1)S(=O)(=O)c1ccc(C(=O)NCCc2ccccc2)cc1,"3.16 µM [rising, single point]",
COc1ccc2c(c1)OC[C@H]1[C@H]2N2C(=O)c3cc(F)ccc3NC(=O)[C@@]2(C)[C@H]1c1ccccc1,"6.51 µM [falling, partial curve, poor fit]","7.31 µM [rising, partial curve, poor fit]"
O=C(Nc1nnc(C2CCCCC2)s1)C1CC(=O)N(c2ccc(F)cc2)C1 (stereo not given),"1.58 µM [rising, partial curve, poor fit]",
Cc1cccc(NC(=O)c2ccc(-c3ccccc3[N+](=O)[O-])o2)c1,"22.4 µM [falling, single point]",
CCC(C)(C)NC(=O)Cc1ccccc1OC,"29.1 µM [rising, single point]",
CCCN(CCC)CC(O)Cn1cc(/C=C/C(=O)c2cccs2)c2ccccc21 (stereo not given),"25.9 µM [falling, single point]",
O=[N+]([O-])c1ccc2[nH]cc(S(=O)(=O)N3CCN(c4cccc(Cl)c4)CC3)c2c1,"17.8 µM [falling, single point]",
COc1ccc(-c2cccc([C@H]3[C@@H]4C=CCC[C@@]4(C)C(=O)N3Cc3ccccc3)c2)cc1,"14.1 µM [falling, single point]",
COc1ccc(Cl)cc1NC(=O)C1CC(c2c(F)cccc2Cl)=NO1 (stereo not given),"14.1 µM [falling, single point]",
CC(C)(C)c1cc(NC(=O)c2cc(F)c(F)c(F)c2F)no1,"1.03 µM [falling, full curve]",
COc1ccc(C(=O)C(C)OC(=O)CN2C(=O)c3ccccc3C2=O)cc1 (stereo not given),"5.8 µM [rising, full curve]",
CCCS(=O)(=O)NCCc1csc2nc(-c3ccc(OC)cc3)nn12,"7.08 µM [rising, partial curve, poor fit]",
CCOc1c(Cl)cc(CNCC(C)C)cc1OC,"18.4 µM [rising, partial curve]","13 µM [falling, partial curve]"
Cc1ccc(/C=N/NC(=O)c2cccs2)s1,"16.4 µM [falling, partial curve, poor fit]",
Cc1ccc(NC(=O)CN2C(=O)NC(C)(C3CC3)C2=O)c([N+](=O)[O-])c1 (stereo not given),"20.6 µM [rising, single point]",
COc1ccc(-c2cc(C(=O)N3CC4(C)CC3CC(C)(C)C4)no2)cc1OC (stereo not given),"35.5 µM [falling, single point]",
CCn1c(NC(=O)c2ccc(C)cc2)c2ccccc2nc1=O,"2.59 µM [rising, partial curve, poor fit]",
COc1ccccc1N(CC(=O)NCCSCc1ccc(Cl)cc1)S(C)(=O)=O,"22.4 µM [falling, single point]",
O=C1/C(=C/Nc2ccc3c(c2)OCO3)CCc2ccccc21,"5.17 µM [falling, partial curve]",

# Pulled by compound from the entries so far, 2 records:
Compound,AC50 [1],AC50 [2]
CCCN(CCC)CC(O)Cn1cc(/C=C/C(=O)c2cccs2)c2ccccc21 (stereo not given),"25.9 µM [falling, single point]",
COc1ccc(-c2cccc([C@H]3[C@@H]4C=CCC[C@@]4(C)C(=O)N3Cc3ccccc3)c2)cc1,"14.1 µM [falling, single point]",

# Remaining list, next part.

Compound,AC50 [1],AC50 [2]
Oc1ccc(-c2csc(-c3cccnc3)n2)cc1O,"15.8 µM [falling, single point]",
CCOC(=O)c1c(NC(=O)c2ccc(Cl)cc2)csc1C,"11.6 µM [falling, single point]",
O=C(CSc1ccc2ccccc2c1)Nc1ccncc1,"0.92 µM [rising, full curve]",
CCOC(=O)c1sc(NC(=O)c2cccnc2)nc1C,"23.1 µM [falling, partial curve, poor fit]",
O=C(COC(=O)c1ccccc1Br)NCCC1=CCCCC1,"1.41 µM [rising, full curve, poor fit]",
O=C(Nc1cc(Cl)cc(Cl)c1)C1CCC(=O)N1Cc1ccccc1Cl (stereo not given),"25.9 µM [falling, single point]",
CC(C)Cc1nnc(NC(=O)C2CCN(C(=O)c3ccc(Cl)cc3)CC2)s1,"3.66 µM [rising, partial curve]",
S=C(NCC1CCCCC1)Nc1ccc(Oc2ccccc2)cc1,"16.4 µM [falling, single point]",
COc1cc(S(=O)(=O)N2CCOCC2)ccc1NC(=O)CSc1nnc(N)s1,"35.5 µM [rising, single point]",
COc1ccc(OC)c(/C=C/C(=O)c2ccc3c(c2)OCCO3)c1,"17.8 µM [falling, single point]",
Cn1c(-c2sc3ccccc3c2Cl)n[nH]c1=S,"20.6 µM [rising, single point]",
O=C(NC1CCCCC1)c1cccc2c1C(=O)c1ccc(N3CCCC3)cc1S2(=O)=O,"23.1 µM [falling, single point]",
CC(C)(C)C(=O)Nc1sc(-c2ccccc2)cc1C(=O)O,"35.5 µM [falling, single point]",
COc1ccccc1/C(C)=N/NC(=S)NCc1ccccc1,"35.5 µM [rising, single point]","31.6 µM [falling, single point]"
Cc1ccccc1-n1c(=O)n(Cc2ccccc2)c(=O)c2[nH]cnc21,"11.2 µM [rising, partial curve, poor fit]","2 µM [falling, partial curve, poor fit]"
Cc1cc(-c2ccccc2)n2ncc(-c3ccccc3)c2n1,"23.1 µM [falling, partial curve]",
O=C(c1cc2cc([N+](=O)[O-])ccc2oc1=O)N1CCN(c2ncccn2)CC1,"3.66 µM [rising, partial curve, poor fit]",
C/C(CCc1ccc2c(c1)OCO2)=N\NC(=S)NC(C)C,"31.6 µM [falling, single point]","25.1 µM [falling, single point]"
COc1ccc(-c2nnc(-c3ccccc3O)o2)cc1,"10 µM [falling, single point]",
COc1ccc2c(c1OC)C(=O)OC2Nc1nc(-c2cc3ccccc3oc2=O)cs1 (stereo not given),"16.4 µM [falling, single point]",
